Where two headings read alike, the source gives them in different places. These are yes or no findings as the source states them, for the method shown. Some results given as binding are weak or reduced against the parent protein; the word gives no strength. For some assays here: Sequences can lack the tags named with a protein.

The source of these data is article PMC9048679, “Correlation Between Improved Mating Efficiency and Weakened Scaffold-Kinase Interaction in the Mating Pheromone Response Pathway Revealed by Interspecies Complementation” (Frontiers in Microbiology, 2022).

Experiment [1] addresses KmSte7 (Ste7 of Kluyveromyces marxianus), Gal4-BD fusion (K. marxianus). Kind of experiment: two-hybrid; Matchmaker GAL4 system; Ste5 forms on Gal4-AD (pGADT7, AH109), Ste7 orthologs on Gal4-BD (pGBKT7, Y187), diploids on SC-Leu-Trp; quantitative β-galactosidase assay of cell lysate with ONPG; units of the same BD-Ste7 with void pGADT7 subtracted; mean of three colonies.
Experiment [2] shares this target. The description is as above. This is another data set of the same source.

Consider “KmSte5ΔS (KmSte5 with the negatively charged segment shortened to the length of that of KlSte5), Gal4-AD fusion (from UniProt A0ABX6ETE1 1-763)”, for which the binding result in experiment [1] is “binds”.

B1: ScSte5 (Ste5 of Saccharomyces cerevisiae), Gal4-AD fusion (protein, UniProt P32917 1-917)
chain: MMETPTDNIVSPFHNFGSSTQYSGTLSRTPNQIIELEKPSTLSPLSRGKKWTEKLARFQRSSAKKKRFSPSPISSSTFSFSPKSRVTSSNSSGNEDGNLMNTPSTVSTDYLPQHPHRTSSLPRPNSNLFHASNSNLSRANEPPRAENLSDNIPPKVAPFGYPIQRTSIKKSFLNASCTLCDEPISNRRKGEKIIELACGHLSHQECLIISFGTTSKADVRALFPFCTKCKKDTNKAVQCIPENDELKDILISDFLIHKIPDSELSITPQSRFPPYSPLLPPFGLSYTPVERQTIYSQAPSLNPNLILAAPPKERNQIPQKKSNYTFLHSPLGHRRIPSGANSILADTSVALSANDSISAVSNSVRAKDDETKTTLPLLRSYFIQILLNNFQEELQDWRIDGDYGLLRLVDKLMISKDGQRYIQCWCFLFEDAFVIAEVDNDVDVLEIRLKNLEVFTPIANLRMTTLEASVLKCTLNKQHCADLSDLYIVQNINSDESTTVQKWISGILNQDFVFNEDNITSTLPILPIIKNFSKDVGNGRHETSTFLGLINPNKVVEVGNVHDNDTVIIRRGFTLNSGECSRQSTVDSIQSVLTTISSILSLKREKPDNLAIILQIDFTKLKEEDSLIVVYNSLKALTIKFARLQFCFVDRNNYVLDYGSVLHKIDSLDSISNLKSKSSSTQFSPIWLKNTLYPENIHEHLGIVAVSNSNMEAKKSILFQDYRCFTSFGRRRPNELKIKVGYLNVDYSDKIDELVEASSWTFVLETLCYSFGLSFDEHDDDDEEDNDDSTDNELDNSSGSLSDAESTTTIHIDSPFDNENATANMVNDRNLLTEGEHSNIENLETVASSVQPALIPNIRFSLHSEEEGTNENENENDMPVLLLSDMDKGIDGITRRSSFSSLIESGNNNCPLHMDYI
Consider B1, for which the binding result in experiment [2] is on record as “binds”.
